Data as given in the supplement of paper PMC3334620.
The full ranking holds about 33,000 sequences; the median of “E-score (-0.5 to 0.5)” is about -0.0034, and the highest 2% start at about 0.25. The list shows a part of the results.

target: T1, Yap3 (UniProt P38749); assay: PBM E-score (8-mer binding enrichment) (E-score (-0.5 to 0.5)); higher = stronger / more preferred TF binding; conditions: protein concentration: 100 nM; construct: GST-full length
T1 sequence: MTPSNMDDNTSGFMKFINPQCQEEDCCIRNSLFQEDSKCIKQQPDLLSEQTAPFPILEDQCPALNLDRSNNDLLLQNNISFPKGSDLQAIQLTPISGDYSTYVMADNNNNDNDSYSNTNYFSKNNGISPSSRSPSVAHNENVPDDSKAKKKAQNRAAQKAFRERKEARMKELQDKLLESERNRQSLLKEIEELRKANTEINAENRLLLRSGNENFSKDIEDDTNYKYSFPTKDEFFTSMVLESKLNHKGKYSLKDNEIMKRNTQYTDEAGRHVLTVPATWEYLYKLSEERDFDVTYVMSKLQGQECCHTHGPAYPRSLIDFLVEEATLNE
Procedure: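 Universal 'all 10-mer' protein binding microarrays (Agilent AMADID 015681) probed with GST-tagged S. cerevisiae TFs (full-length or DBD) made by in vitro transcription/translation (PURExpress), about 100-200 nM. Bound TF was detected with fluorescent anti-GST. Each ungapped 8-mer (which stands for itself and its reverse complement) is scored by the PBM enrichment score (E-score), a modified Wilcoxon-Mann-Whitney statistic from -0.5 to +0.5, computed with the Universal PBM Analysis Suite. Scale: above 0.35 generally sequence-specific binding.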

Sequence	PBM E-score
GAACCCCC	-0.473
AATAGTCC	-0.00891
CAGGATCC	-0.0105
AATTTCCT	0.13
AGACTATA	0.205
AGTAAACC	-0.0017
CGACGTCA	0.0828
CAATTAAA	0.22
CGCTTGCC	-0.069
CACGGACG	0.0289
TTAGAGAA	-0.117
AATATCCT	0.0852
CCGGTCAG	-0.18
ATCCGGTC	-0.106
GTCCATAA	-0.0433
GCCGAAGA	0.119
GGGGCAAA	-0.0277
CATCTAAA	0.0507
AAATGCCT	0.0646
GACATGTA	0.162
ACTGCAAC	-0.0198
GCCTAGCA	-0.237
CGCTGCCG	-0.265
GACGGGCC	-0.268
TAACTAAA	0.165

Sequence	PBM E-score
CCGCGGCC	-0.174
AGAATCTG	0.00295
GCTAAAAA	-0.0143
CACGCATA	0.0859
ACGTCTTA	-0.0638
CAGAGTAC	-0.104
TGCCTAAA	0.0234
CAACGCTG	-0.0537
AGCGTTTA	0.0398
GTCCGCTA	-0.057
GAAGTGAA	0.0581
AGCGCCCA	-0.303
ACTAGGTG	-0.0963
GCGCATAA	0.131
ATCTCCCA	0.0495
ATCTTACC	-0.0311
GCATAGGA	0.00911
ATTAGGTA	0.167
GCGCCGCA	0.106
TCCCACCA	-0.125
CGGAACAG	-0.0265
GAAGCCGC	-0.039
GACTGCTC	-0.113
CAGGCATA	-0.119
GATAGCAC	-0.081

2 entries drawn at random from those above, as already listed:
Sequence	PBM E-score
GGGGCAAA	-0.0277
ACTAGGTG	-0.0963

Part of the list above, in markdown.

| Sequence | PBM E-score |
| --- | --- |
| GAAGTGAA | 0.0581 |
| AGCGCCCA | -0.303 |
| ATCTCCCA | 0.0495 |

(listing goes on)

Sequence	PBM E-score
GGGACGGA	-0.334
AAGTACGA	0.188
CGAACCAC	-0.0638
AACCGATT	0.133
AGTGCTCC	-0.276
AGAATCAG	0.104
ATGTATCA	0.2
GTAAATCA	0.219
AAAATGTT	0.166
GCTGGACC	-0.242
GAGTAATC	0.103
CCCAGACC	-0.195
CGAGTCCA	-0.178
GAGCGAAA	0.125
CTGGGCTC	-0.267
ACTTAACT	0.171
CTCGGGCC	-0.225
CAATGGAC	0.0697
ACTGCATA	0.0972
CCGCCCAG	-0.253
GACTGCTA	-0.148
ACCACAAC	0.235
ATTTAGCG	-0.00334
CACACTAA	0.211
AGAGACCC	-0.179

Sequence	PBM E-score
ACTCGTAT	0.116
GACCGTGC	-0.181
CCGTCTCC	-0.083
CAGGAGCG	-0.0281
AAGGGTGA	-0.0745
GTGAGCGA	0.127
AGGCTGAA	-0.133
CGTTACAA	0.158
GTAACAGA	0.105
CACTTAGA	0.116
GGACTCAA	-0.167
ATAACGAG	-0.00176
GGAACGCA	-0.0583
ATATAAAT	0.242
CAGTGACA	-0.0302
AACCCAAA	0.0463
ACTAGCTG	-0.00925
GAGCGGCA	-0.125
CAAGCCCC	-0.264
CCCGCGAC	-0.205
AGTTAGCG	0.185
AGACCGTA	-0.204
TTGAACAA	-0.00027
AAAGTGTA	0.14
TCGCTTAA	0.155

Sequence	PBM E-score
ATGCGTGG	-0.117
ACTAGATC	-0.0988
GACCTCGA	0.11
ACCTAACG	-0.153
ATCCGTGA	0.0367
ATCTAAGG	0.0735
CAAGGATC	0.072
CCCGGCAG	-0.231
ACGAAAGA	0.159
TGATTGAA	0.141
CTCGTAAA	0.00836
CATGTTTC	0.205
AGGCCCGA	-0.135
ATTTATCA	0.189
AACTGTCC	0.052
CACGTGGA	0.101
CGCCCTAG	-0.147
ATGACGCG	0.143
CTCACTTA	0.0133
AAGTCCTC	-0.0807
CAAGCTCA	-0.158
AGCGGTGG	-0.2
CGATTATA	0.154
AATCCTGT	0.121
CCTCACCG	-0.274

Sequence	PBM E-score
CCCCCGAC	-0.268
CGAATAAC	0.15
ACCGAGGT	-0.225
GAGCCAGC	-0.184
GTGTTCAA	0.0155
AGTGCTCA	-0.165
ACTTTAAA	0.168
AGACGTGG	-0.168
AAAGCGGC	0.0828
CGAAGTTA	0.157
CTCTCTTA	-0.0535
ACTTTTCC	0.155
GGTATACC	0.12
CACCGAGC	0.0303
CCATGCAC	-0.17
GGGGACCA	-0.136
AGTGTTCC	0.065
TATGAGCA	-0.0583
ATAGAGAG	-0.216
TGTTGCAA	0.187
CTTATGAC	0.144
GAATTCGA	0.005
CGTTATTC	0.0755
GCTGAGAA	0.00157
AGCATGTA	0.0181

Sequence	PBM E-score
AGGAAAAG	0.0912
CCCTCTGA	-0.222
GTCTGTCA	0.0703
GTTCAGCA	-0.0106
CATCGTCA	0.0115
GTGGGCCA	0.00779
GATGACAC	0.132
CAACGATG	-0.0278
ACGCCCGC	-0.0787
AACTTTCG	0.0282
AATGGATA	0.0425
ATCGAGGC	0.0376
ACAGCTCT	-0.259
AACAGTAA	0.144
AATCTGCG	-0.0221
ACTAGAGT	-0.0534
CCCTTTAC	0.00491
AAAAAGTA	0.204
ACTGTTAA	0.155
CTCTAGAG	-0.193
ACTGCGAC	0.0458
TATATTAA	0.315
